Measurements taken from PubChem BioAssay (EPA / NIEHS).
Inconclusive results, whose numbers are uncertain, are shown with a selection of clear calls. Potencies of inconclusive entries are doubtful fits and often do not repeat. Calls of active or inactive are those of the source. How the source made its calls: active means hit-call score of the fitted dose curve at least 0.9, where 1 is the maximum; inconclusive means response in the unintended direction; inactive means score below 0.9.

The chains behind the UniProt entries cited, without tags or fusion partners. Where a name states a change or a piece, a line headed by the entry shows the natural chain unless it says otherwise.
UniProt Q02763: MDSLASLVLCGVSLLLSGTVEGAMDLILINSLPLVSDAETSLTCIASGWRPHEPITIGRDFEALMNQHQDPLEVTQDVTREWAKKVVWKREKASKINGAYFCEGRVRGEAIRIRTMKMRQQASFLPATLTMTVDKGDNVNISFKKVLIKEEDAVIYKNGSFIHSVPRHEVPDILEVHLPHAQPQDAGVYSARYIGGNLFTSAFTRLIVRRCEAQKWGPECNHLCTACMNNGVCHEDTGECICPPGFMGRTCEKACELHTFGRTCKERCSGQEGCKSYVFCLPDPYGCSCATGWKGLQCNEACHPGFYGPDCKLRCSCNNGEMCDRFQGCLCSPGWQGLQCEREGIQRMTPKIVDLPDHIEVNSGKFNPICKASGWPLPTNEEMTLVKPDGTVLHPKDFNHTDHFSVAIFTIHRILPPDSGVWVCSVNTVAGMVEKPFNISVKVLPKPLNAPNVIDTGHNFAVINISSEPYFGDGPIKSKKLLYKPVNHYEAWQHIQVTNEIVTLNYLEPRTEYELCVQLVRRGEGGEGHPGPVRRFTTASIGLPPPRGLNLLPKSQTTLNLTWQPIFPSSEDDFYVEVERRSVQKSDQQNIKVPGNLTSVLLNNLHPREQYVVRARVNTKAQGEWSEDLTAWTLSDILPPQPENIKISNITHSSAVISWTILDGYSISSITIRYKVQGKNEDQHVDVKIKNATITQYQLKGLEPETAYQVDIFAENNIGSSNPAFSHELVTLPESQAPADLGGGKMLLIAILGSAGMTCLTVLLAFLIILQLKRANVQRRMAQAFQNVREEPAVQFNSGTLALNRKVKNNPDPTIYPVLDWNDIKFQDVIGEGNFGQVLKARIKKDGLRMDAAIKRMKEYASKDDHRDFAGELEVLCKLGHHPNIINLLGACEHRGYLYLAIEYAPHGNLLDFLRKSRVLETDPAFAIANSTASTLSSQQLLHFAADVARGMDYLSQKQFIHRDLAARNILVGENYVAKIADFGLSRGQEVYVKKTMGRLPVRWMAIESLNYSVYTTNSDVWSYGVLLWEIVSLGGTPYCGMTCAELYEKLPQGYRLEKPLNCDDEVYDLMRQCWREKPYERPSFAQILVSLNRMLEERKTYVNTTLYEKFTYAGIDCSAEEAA
UniProt P17948, whole entry, looked up: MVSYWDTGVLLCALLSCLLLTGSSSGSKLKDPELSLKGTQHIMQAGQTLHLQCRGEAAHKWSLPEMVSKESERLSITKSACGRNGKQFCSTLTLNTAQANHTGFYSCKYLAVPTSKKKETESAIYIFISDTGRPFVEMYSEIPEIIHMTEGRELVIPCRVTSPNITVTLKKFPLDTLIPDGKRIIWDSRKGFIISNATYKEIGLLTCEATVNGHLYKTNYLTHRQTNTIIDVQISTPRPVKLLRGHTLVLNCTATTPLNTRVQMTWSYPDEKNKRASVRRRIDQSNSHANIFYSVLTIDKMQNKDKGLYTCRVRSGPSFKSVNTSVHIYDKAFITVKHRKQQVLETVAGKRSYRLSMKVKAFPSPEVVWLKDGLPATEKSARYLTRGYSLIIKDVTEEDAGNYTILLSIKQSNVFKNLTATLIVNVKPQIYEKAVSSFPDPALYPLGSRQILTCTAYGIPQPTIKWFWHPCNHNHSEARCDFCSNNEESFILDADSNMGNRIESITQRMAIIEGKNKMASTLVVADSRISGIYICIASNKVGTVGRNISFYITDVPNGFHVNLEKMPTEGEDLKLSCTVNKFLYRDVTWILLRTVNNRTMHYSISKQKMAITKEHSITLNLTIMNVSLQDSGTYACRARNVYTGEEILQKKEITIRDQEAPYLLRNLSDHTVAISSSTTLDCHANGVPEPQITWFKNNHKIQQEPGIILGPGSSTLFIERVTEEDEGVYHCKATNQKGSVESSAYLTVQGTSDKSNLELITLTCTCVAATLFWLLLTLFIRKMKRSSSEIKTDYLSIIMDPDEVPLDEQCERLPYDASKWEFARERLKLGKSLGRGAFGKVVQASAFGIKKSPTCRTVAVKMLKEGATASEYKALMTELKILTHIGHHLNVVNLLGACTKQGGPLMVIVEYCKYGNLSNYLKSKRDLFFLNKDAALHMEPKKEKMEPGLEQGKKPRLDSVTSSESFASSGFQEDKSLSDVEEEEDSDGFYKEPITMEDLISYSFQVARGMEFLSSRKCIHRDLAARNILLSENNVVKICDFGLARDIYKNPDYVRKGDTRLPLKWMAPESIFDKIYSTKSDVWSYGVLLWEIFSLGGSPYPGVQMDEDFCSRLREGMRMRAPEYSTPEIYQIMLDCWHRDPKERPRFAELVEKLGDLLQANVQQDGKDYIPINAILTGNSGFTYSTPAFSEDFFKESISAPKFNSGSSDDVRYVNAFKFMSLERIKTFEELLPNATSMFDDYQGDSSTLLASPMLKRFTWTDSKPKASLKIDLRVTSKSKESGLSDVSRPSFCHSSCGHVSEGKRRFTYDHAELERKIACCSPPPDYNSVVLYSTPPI
UniProt P35916, whole entry, looked up: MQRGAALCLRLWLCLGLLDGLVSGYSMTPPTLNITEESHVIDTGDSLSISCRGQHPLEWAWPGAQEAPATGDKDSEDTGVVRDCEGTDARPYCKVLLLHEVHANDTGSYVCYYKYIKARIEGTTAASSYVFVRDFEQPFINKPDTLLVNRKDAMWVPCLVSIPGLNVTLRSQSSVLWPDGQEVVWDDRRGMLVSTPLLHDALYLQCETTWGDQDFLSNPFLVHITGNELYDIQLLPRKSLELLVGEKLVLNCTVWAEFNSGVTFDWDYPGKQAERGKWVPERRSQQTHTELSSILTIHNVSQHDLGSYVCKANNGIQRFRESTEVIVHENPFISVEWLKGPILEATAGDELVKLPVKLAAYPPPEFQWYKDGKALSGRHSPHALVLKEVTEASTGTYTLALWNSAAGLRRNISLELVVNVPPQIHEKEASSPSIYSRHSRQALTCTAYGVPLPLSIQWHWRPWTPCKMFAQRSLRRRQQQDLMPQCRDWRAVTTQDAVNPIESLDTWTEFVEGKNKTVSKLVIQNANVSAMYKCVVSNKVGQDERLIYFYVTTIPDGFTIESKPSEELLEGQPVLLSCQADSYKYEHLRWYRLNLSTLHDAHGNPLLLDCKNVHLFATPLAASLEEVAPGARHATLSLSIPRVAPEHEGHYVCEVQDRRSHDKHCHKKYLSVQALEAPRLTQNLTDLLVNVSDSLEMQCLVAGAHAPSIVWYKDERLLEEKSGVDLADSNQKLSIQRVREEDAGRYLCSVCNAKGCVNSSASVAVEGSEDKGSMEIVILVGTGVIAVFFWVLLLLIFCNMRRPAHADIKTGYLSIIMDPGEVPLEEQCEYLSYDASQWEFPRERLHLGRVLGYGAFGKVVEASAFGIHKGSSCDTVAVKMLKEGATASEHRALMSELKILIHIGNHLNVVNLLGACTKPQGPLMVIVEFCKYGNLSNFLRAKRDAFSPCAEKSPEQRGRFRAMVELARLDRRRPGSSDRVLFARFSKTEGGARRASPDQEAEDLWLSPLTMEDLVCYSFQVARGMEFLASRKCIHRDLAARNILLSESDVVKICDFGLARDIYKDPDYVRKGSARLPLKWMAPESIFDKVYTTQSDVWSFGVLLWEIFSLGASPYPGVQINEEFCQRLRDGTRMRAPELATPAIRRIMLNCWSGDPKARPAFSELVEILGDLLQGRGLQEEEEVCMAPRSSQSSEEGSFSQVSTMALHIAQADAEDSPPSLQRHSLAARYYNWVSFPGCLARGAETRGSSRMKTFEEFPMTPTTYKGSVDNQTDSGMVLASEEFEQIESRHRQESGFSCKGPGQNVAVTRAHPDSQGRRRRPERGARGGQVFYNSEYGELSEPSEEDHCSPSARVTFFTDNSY

Each compound was assayed against human Tyrosine Protein Kinase Receptor Tie-2 (Tie2), TEK (gene 7010) (UniProt Q02763) (assay: NVS_ENZ_hTie2: NovaScreen (NVS) Enzymatic Assay for human Tyrosine Protein Kinase Receptor Tie-2 (Tie2) (AID 2283225)).
Procedure, shortened: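 Recombinant human Tie2 kinase activity was read cell-free by fluorescence with electrophoretic mobility shift, 1 hour after dosing. The screen used 25 uM in duplicate, then concentration-response up to 50 uM. Signal loss was scored against DMSO.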

Compound	outcome	AC50
CC(C)(C)C(O)C(Oc1ccc(Cl)cc1)n1cncn1 (stereo not drawn)	inactive	
Cc1cc2c3c(c1)C(c1ccccc1)=N[C@@H](NC(=O)c1ccncc1)C(=O)N3CC2	inactive	
CCCCOC(=O)c1ccccc1C(=O)OCCCC	inactive	
CCC(=O)O[C@H]1CC[C@H]2[C@@H]3CCC4=CC(=O)CC[C@]4(C)[C@H]3CC[C@]12C		inconclusive: 25 µM
O=[N+]([O-])c1c(Cl)c(Cl)c(Cl)c(Cl)c1Cl		inconclusive: 25 µM
CC(C)C(=O)OCC(C)(C)C(OC(=O)C(C)C)C(C)C (stereo not drawn)		inconclusive: 25 µM

What follows are compounds tested against human Vascular Endothelial Growth Factor Receptor 1 (VEGFR1), FLT1 (gene 2321) (UniProt P17948) (assay: NVS_ENZ_hVEGFR1: NovaScreen (NVS) Enzymatic Assay for human Vascular Endothelial Growth Factor Receptor 1 (VEGFR1) (AID 2283226)).
Procedure, shortened: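 Cell-free assay of recombinant human VEGFR1 kinase with substrate, measured 1 h after dosing; fluorescence with electrophoretic mobility-shift separation of substrate and product, referenced to DMSO; primary screen at 25 uM in duplicate, actives then run in concentration series.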

Compound	outcome	AC50
O=C(N[C@H]1CN2CCC1CC2)c1ccc2c(c1)OCCO2	inactive	
CCCN(CCC)c1c([N+](=O)[O-])cc(S(N)(=O)=O)cc1[N+](=O)[O-]	inactive	
CC(=O)[O][Hg][c]1ccccc1	inactive	
N#Cc1cccnc1	inactive	
CCNS(=O)(=O)C(F)(F)C(F)(F)C(F)(F)C(F)(F)C(F)(F)C(F)(F)C(F)(F)C(F)(F)F		inconclusive: 0.637 µM
CC(C)C(=O)OCC(C)(C)C(OC(=O)C(C)C)C(C)C (stereo not drawn)	inactive	

These compounds were tested against human Vascular Endothelial Growth Factor Receptor 3 (VEGFR3), FLT4 (gene 2324) (UniProt P35916) (assay: NVS_ENZ_hVEGFR3: NovaScreen (NVS) Enzymatic Assay for human Vascular Endothelial Growth Factor Receptor 3 (VEGFR3) (AID 2283229)).
Procedure, shortened: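 Cell-free recombinant VEGFR3 kinase reaction with fluorescent substrate, read 1 h after dosing by electrophoretic mobility shift separation of substrate and product. Single-concentration duplicate screen at 25 uM, then concentration-response up to 50 uM; loss of activity versus DMSO.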

Compound	outcome	AC50
O=C(O)C(F)(F)C(F)(F)C(F)(F)C(F)(F)C(F)(F)F	inactive	
CCCN(CCC)c1c([N+](=O)[O-])cc(S(N)(=O)=O)cc1[N+](=O)[O-]		inconclusive: 0.802 µM
CC(C)(C)OOC(C)(C)C		inconclusive: 13.1 µM
N#Cc1cccnc1		inconclusive: 25 µM
CCNS(=O)(=O)C(F)(F)C(F)(F)C(F)(F)C(F)(F)C(F)(F)C(F)(F)C(F)(F)C(F)(F)F	inactive	
CC(C)C(=O)OCC(C)(C)C(OC(=O)C(C)C)C(C)C (stereo not drawn)		inconclusive: 25 µM
